Results taken from the supplement of paper PMC3334620.
Whole data set: some 33,000 sequences, median “E-score (-0.5 to 0.5)” near -0.0034, cut for the highest 2% near 0.25. Some of the results follow.

target: T1, Yap3 (UniProt P38749); assay: PBM E-score (8-mer binding enrichment) (E-score (-0.5 to 0.5)); higher = stronger / more preferred TF binding; details: protein concentration: 100 nM; construct: GST-full length
T1 sequence: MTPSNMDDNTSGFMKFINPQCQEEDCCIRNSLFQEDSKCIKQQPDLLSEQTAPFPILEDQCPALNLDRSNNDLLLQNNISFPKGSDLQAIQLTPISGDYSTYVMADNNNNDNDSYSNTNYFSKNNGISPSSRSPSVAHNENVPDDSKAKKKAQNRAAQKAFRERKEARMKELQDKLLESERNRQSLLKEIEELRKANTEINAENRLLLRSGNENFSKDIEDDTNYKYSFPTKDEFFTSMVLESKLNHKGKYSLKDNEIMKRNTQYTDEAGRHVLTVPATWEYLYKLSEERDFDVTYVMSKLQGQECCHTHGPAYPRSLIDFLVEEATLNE
Outline: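 The E-score, a modified Wilcoxon-Mann-Whitney statistic, was computed by the Universal PBM Analysis Suite for every ungapped eight-base word pooled with its reverse complement. Scans behind it were normalised with masliner after bound GST-tagged yeast transcription factors were detected with fluorescent anti-GST. The proteins, at about 100-200 nM, had been applied to universal all-10-mer Agilent arrays made double-stranded by primer extension.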

Row | Sequence | PBM E-score
1 | GCTTGGCA | -0.188
2 | CATGTGTC | 0.0511
3 | ACCATACC | -0.0173
4 | AATATACC | 0.185
5 | CCCAGAGA | -0.0962
6 | ATCAGCAT | 0.107
7 | ATGAACCA | 0.198
8 | CCCTACGA | -0.0192
9 | CGACCTCA | -0.0898
10 | ACGAGGAG | 0.0509
11 | AAGTGGGC | 0.11
12 | AAAAGTTT | 0.0426
13 | CCGGTTCC | -0.0896
14 | ACTTATCG | 0.104
15 | CGAGCCCG | -0.254
16 | CCTACTAA | 0.073
17 | TGCGAGAA | -0.0655
18 | TATGCTGA | -0.0774
19 | ACTGCAAA | -0.00094
20 | CCCTAACC | 0.00532
21 | CCTGGCAG | -0.0265
22 | CCGTGGAA | -0.00863
23 | CTGCCCAC | -0.168
24 | GCATAAGC | 0.16

Row | Sequence | PBM E-score
25 | ACTCCTAC | -0.0361
26 | AGACTCGG | -0.231
27 | CAACATTA | 0.209
28 | ACGTCGAC | 0.0881
29 | ACCACTCT | -0.0304
30 | ATACCAAG | 0.116
31 | AATGTTAC | 0.111
32 | CGGTCTTA | -0.196
33 | AGTCGGTC | -0.125
34 | GAACTTAC | 0.0611
35 | GGTGGCGA | -0.0578
36 | CACATACC | -0.121
37 | CGGACAAA | 0.0955
38 | GTCACGAA | 0.0553
39 | AGCTTCTC | -0.056
40 | CTGGACGA | -0.189
41 | CGTGGGCC | -0.127
42 | AGCAAAAT | 0.0797
43 | AAAACGGC | 0.0585
44 | CGGAACAA | 0.241
45 | TTCTTCAA | 0.0985
46 | AATCAGCC | -0.011
47 | CTGTTGTC | 0.102
48 | TAAGATAA | 0.0659

A second format for some results above:
ACTCCTAC
  PBM E-score = -0.0361
AGACTCGG
  PBM E-score = -0.231

Further records follow.

Row | Sequence | PBM E-score
49 | CTTTTACC | 0.197
50 | CTCTGGCA | -0.0564
51 | CGTCTTAA | -0.0261
52 | GTTTATGA | 0.167
53 | ATCTTGAA | 0.0306
54 | ACAGGGTC | -0.15
55 | AGGGTACA | 0.0205
56 | ATACCTGG | -0.169
57 | CGATGTGA | 0.0929
58 | CGCTTTTC | -0.0501
59 | GACAAGAC | -0.0835
60 | TCCAAACA | -0.0104
61 | AACGTTGT | 0.104
62 | CGAAGACG | -0.174
63 | CAGTGAGA | -0.0268
64 | AGAAAGAT | 0.164
65 | CATACTTC | -0.0826
66 | CTTCCTTC | -0.204
67 | TGCGGCAA | 0.00329
68 | GTAACCAC | -0.0746
69 | CGCAGGAG | -0.101
70 | AATAGGGG | 0.115
71 | GCCCACAC | -0.0756
72 | AAGGTGTC | -0.101

Row | Sequence | PBM E-score
73 | ACGGTAGT | 0.0239
74 | ATTAGGGA | 0.00493
75 | AAACGCTG | -0.0785
76 | CTATGCTC | -0.0894
77 | CGAATACA | 0.0361
78 | ATATCATG | 0.101
79 | CCTTCTAA | -0.0389
80 | ATGTGCAG | -0.188
81 | CCTAGGGC | -0.24
82 | CATGAATG | 0.0841
83 | ATTATTAC | 0.269
84 | CCAGCGGG | -0.215
85 | AAAACACG | 0.22
86 | ATATGTAG | 0.0736
87 | GCTGGCTA | -0.196
88 | GCAGTAAA | 0.0959
89 | AGTTTTCC | 0.0722
90 | AGCTTAAC | -0.0329
91 | ATGCAGAA | 0.154
92 | ACTCGCAT | 0.117
93 | CTTGGGGA | 0.0229
94 | CACATGCC | 0.0554

Fetched one by one from the list above, 3 records:
Row | Sequence | PBM E-score
55 | AGGGTACA | 0.0205
9 | CGACCTCA | -0.0898
81 | CCTAGGGC | -0.24
